Reference: PubChem BioAssay AID652054 (National Center for Advancing Translational Sciences (NCATS), 2013)
The campaign covered roughly 360,000 compounds. About 9,100 (2.5%) were called active. The inconclusive results got no clear call from the source; some entries with a clear call stand among them for comparison. Rule as the data show it: active = max response below about -50%; inconclusive = no clear call, values can overlap the other calls; inactive = above that.

Sequences of proteins named here, by UniProt entry; tags and fusion partners are left off.
UniProt P35462, whole entry, looked up: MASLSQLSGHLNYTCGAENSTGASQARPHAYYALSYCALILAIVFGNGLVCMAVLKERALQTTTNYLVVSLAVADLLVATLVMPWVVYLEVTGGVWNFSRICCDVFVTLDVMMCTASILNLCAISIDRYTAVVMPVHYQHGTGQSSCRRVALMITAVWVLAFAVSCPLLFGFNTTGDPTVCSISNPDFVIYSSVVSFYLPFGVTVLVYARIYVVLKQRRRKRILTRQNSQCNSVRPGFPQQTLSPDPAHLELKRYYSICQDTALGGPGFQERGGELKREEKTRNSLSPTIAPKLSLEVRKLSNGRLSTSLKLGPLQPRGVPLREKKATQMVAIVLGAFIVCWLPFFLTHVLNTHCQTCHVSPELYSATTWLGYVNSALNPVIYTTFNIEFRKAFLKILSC

target: D(3) dopamine receptor (Homo sapiens) (UniProt P35462); test: qHTS of D3 Dopamine Receptor Antagonist: qHTS; conditions: D3R cells, DiscoveRx beta-arrestin luminescence, antagonist mode; hits give low values
In short: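 Cells plated overnight at 1500 cells/well, then exposed to library compounds with dopamine controls for 90 minutes at 37 degrees C. DiscoveRx reagent added for 30–60 minutes at room temperature; luminescence read, quantitative HTS format.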
% is scaled to controls: 0 for no effect and ±100 for the full control effect.

Row | SMILES | max response, negative = inhibition
1 | O=S(=O)(Nc1nc2ccccc2nc1Nc1cccc(S(=O)(=O)N2CCCCC2)c1)c1ccccc1 | inactive: 18.9%
2 | O=C(NN=C1CCCC1)NC1CCCCC1 | inconclusive: -32.1%
3 | Cn1c(/C(C#N)=C(\O)c2cccc(F)c2)nc2ccccc21 | active: -50.7%
4 | COc1ccc(C(=O)N/N=C/c2cc3ccccc3[nH]c2=S)cc1 | inconclusive: -32.4%
5 | CCOc1cc(C=C(C#N)C#N)ccc1Oc1ccc([N+](=O)[O-])cn1 | inactive: 13.3%
6 | CCn1c(Cc2ccccc2)nnc1SCC(=O)Nc1nc2ccccc2s1 | inconclusive: -31%
7 | N=c1sccn1CC(=O)Nc1ccc2c(c1)CCC2 | inconclusive: -39.2%
8 | COc1ccc(OC)c(C2=NO[C@@](CC(=O)O)(C(=O)Nc3ccc4c(c3)OCCO4)C2)c1 | inactive: -23%
9 | CCC(=O)Nc1cc(NC(=O)CSc2ncc(-c3ccc(F)cc3)n2Cc2ccco2)ccc1C | active: -60%
10 | O=C(Nc1cccc([N+](=O)[O-])c1)c1ccc2ccccc2c1O | inconclusive: -35.8%
11 | OCCOCCNc1ncnc2c1cnn2-c1ccc(Cl)cc1 | inactive: 4.96%
12 | COc1ccccc1CNCc1ccc(OC)c2ccccc12 | inactive: -12.7%
13 | Cc1ccc(C(=O)OCCN2CCN(c3ncc(C(F)(F)F)cc3Cl)CC2)cc1 | active: -82.6%
14 | COc1ccc(Cc2noc(-c3ccc([N+](=O)[O-])cc3)n2)cc1OC | inactive: 34%
15 | O=C(CSCc1ccccc1)N1CCN(Cc2ccc3c(c2)OCO3)CC1 | inconclusive: -31.3%
16 | CCOC(=O)c1cc(-c2ccccc2C)nn1CC1CC(c2ccc(OC)cc2)=NO1 (configuration not stated) | inactive: 35.7%
17 | Cc1cc2ccccc2n1CCNC(=O)COc1ccccc1 | inconclusive: -32.5%
18 | CCc1ccc(-c2cc3c(=O)n(CC(=O)NCCCN4CCN(Cc5ccccc5)CC4)nc(C)n3n2)cc1 | inconclusive: -42.2%
19 | CCN(CCCNC(=O)CN1C(=O)COc2ccc(S(=O)(=O)N3CCC(C)CC3)cc21)Cc1ccccc1 | active: -73.7%

Row | SMILES | max response, negative = inhibition
20 | CN1CCN(CC(=O)Nc2c(C(=O)C3CC3)oc3ccccc23)CC1 | inconclusive: -34.5%
21 | COc1ccc2c(c1)-c1c(ssc1=S)C(C)(C)N2S(=O)(=O)c1ccc(C)cc1 | inconclusive: -48.9%
22 | O=C(C1CCCN(Cc2ccccc2C(F)(F)F)C1)N1CCCCC1 (configuration not stated) | active: -87.7%
23 | Cc1ccc(-c2cc3onc(-c4ccccc4)c3c(=O)n2C)cc1 | inactive: 34.4%
24 | CN1CCN(C(c2ccc(Br)cc2)c2cc(Cl)c3cccnc3c2O)CC1 (configuration not stated) | active: -76.4%
25 | CCOc1ccc(C2SCC(=O)N2c2c(C)n(C)n(-c3ccccc3)c2=O)cc1 (configuration not stated) | inconclusive: -30.6%
26 | COc1ccccc1/C=C/CN1CCCC(CO)(CCc2ccccc2)C1 (configuration not stated) | active: -95.6%
27 | COc1ccc(CCNC(=O)c2c(N)no[n+]2[O-])cc1OC | inconclusive: -34.5%
28 | O=C(O)CCC(=O)N1CC=C(c2ccccc2)CC1 | inconclusive: -36.4%
29 | CN(C(=O)c1ccccc1)c1nc2ccccc2s1 | inconclusive: -45.7%
30 | Fc1ccc(N2CCN(Cc3cnc(Oc4ccc(Br)cc4)s3)CC2)cc1 | active: -67.9%
31 | CCOC(=S)SCC(=O)Nc1ncc(C)s1 | inactive: -19.2%
32 | O=C(COC(=O)[C@H](Cc1ccccc1)NS(=O)(=O)c1ccccc1F)NC1CCCCC1 | inconclusive: -38.4%
33 | CC1CN(C(=O)COc2ccc3ccccc3c2Br)CC(C)O1 (configuration not stated) | inconclusive: -37%
34 | COc1nc(NCCC2=CCCCC2)nc(OC)n1 | inconclusive: -41.1%
35 | Cc1ccc(C(NC(=O)C2CCN(Cc3ccc(Oc4ccccc4)cc3)CC2)c2ccccn2)cc1 (configuration not stated) | active: -83.1%
36 | O=C(Cn1nnc(-c2ccccc2F)n1)Nc1ccc(C(=O)N2CCOCC2)cc1 | inconclusive: -39.4%
37 | Oc1c(Cl)cc(Cl)c2cccnc12 | active: -61.4%
38 | O=C(NCc1ccccc1)C(=O)NCC1COc2ccccc2O1 (configuration not stated) | inconclusive: -33.4%

Compounds 25–26, reprinted for reference:
Row | SMILES | max response, negative = inhibition
25 | CCOc1ccc(C2SCC(=O)N2c2c(C)n(C)n(-c3ccccc3)c2=O)cc1 (configuration not stated) | inconclusive: -30.6%
26 | COc1ccccc1/C=C/CN1CCCC(CO)(CCc2ccccc2)C1 (configuration not stated) | active: -95.6%

Later entries

Row | SMILES | max response, negative = inhibition
39 | CC(C)CCSc1nc(N2CCOCC2)c2c(c1C#N)CC(C)(C)OC2 | inactive: 15.2%
40 | CN(C)c1ccc(NS(=O)(=O)c2ccc(-c3csnn3)cc2)cc1 | inconclusive: -35.8%
41 | CC(C)(C)OC(=O)C(Cc1ccc(OC(C)(C)C)cc1)NC(=O)CNC(=O)OCc1ccccc1 (configuration not stated) | inactive: 17%
42 | COc1ccccc1N1CCN(CCCNc2c(C)c(=O)n(C)c(=O)n2C)CC1 | active: -56.5%
43 | Cc1noc(C)c1Cn1c(C)c(C(=O)NCc2ccc3c(c2)OCCO3)sc1=O | inactive: 3.29%
44 | CCc1nnc(NC(=O)CSc2nnc(COc3ccccc3)n2-c2ccc(C)cc2)s1 | inconclusive: -42.4%
45 | O=C(O)CC(Cc1ccccc1)C(=O)Nc1ccc([N+](=O)[O-])cc1 (configuration not stated) | inconclusive: -31.5%
46 | O=C1Nc2c(Cl)cc(Cl)cc2C1=O | active: -92.8%
47 | CC(=O)NC(c1cccc(F)c1)c1nc(-c2cnn(C)c2)cs1 (configuration not stated) | active: -52.7%
48 | COc1ccc(C(C[N+](=O)[O-])C2(c3ccc(OC)c(OC)c3)C(=O)c3ccccc3C2=O)cc1 (configuration not stated) | active: -82.2%
49 | COc1cccc(CCNC(=O)CCc2nnc(Cc3cc(OC)ccc3OC)o2)c1 | inconclusive: -40.5%
50 | CN1CCN(C2=C(Cl)C(=O)c3ccccc3C2=O)CC1 | inconclusive: -32.3%
51 | CCOC(=O)N1CCN(CC(=O)Nc2c(C(=O)OC)[nH]c3cccc(Cl)c23)CC1 | inconclusive: -31.2%
52 | Cc1cccc(/C=C/C(=O)c2cc(Br)ccc(=O)c2O)c1 | active: -59.4%
53 | NC(=O)c1c(NC(=O)CCCC(=O)O)sc2c1CCCCCC2 | inconclusive: -31.3%
54 | Cc1c(Cl)cccc1NC(=O)CCN1CCCCC1 | active: -58.5%
55 | CCc1ccc(N2C(=O)c3sc4nnc(C)c(=O)n4c3C2=O)cc1 | inconclusive: -42.4%
56 | COC(=O)c1ccccc1S(=O)(=O)N1CCC(C(=O)OCc2cccc(OC)c2OC)CC1 | inactive: 13.3%
57 | O=C(Nc1nc2c(Cl)cccc2s1)c1ccc([N+](=O)[O-])o1 | inconclusive: -37.6%
